In PMC9873567 (2022):
No constants are given. Whether binding was seen depends on the method and setting. For some assays here: Binding can be weak; no strength is given. For some assays here: Sequences can lack the tags named with a protein.

T1: PUB31 (1-61 + 128-444), PUB31 (ΔU-box), as bait (Arabidopsis thaliana) (UniProt Q9FHN9)
T1 sequence: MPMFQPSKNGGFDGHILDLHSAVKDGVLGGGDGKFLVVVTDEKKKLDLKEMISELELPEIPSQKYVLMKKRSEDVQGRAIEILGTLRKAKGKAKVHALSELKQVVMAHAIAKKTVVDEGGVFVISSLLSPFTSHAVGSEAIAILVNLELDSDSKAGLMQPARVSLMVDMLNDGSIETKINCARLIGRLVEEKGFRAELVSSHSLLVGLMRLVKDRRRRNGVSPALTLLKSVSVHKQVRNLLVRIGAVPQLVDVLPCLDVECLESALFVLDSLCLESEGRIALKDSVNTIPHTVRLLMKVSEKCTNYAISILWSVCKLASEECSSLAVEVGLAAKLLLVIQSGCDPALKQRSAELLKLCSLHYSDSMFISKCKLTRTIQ

T2: PUB30 (1-65 + 132-448), PUB30 (ΔU-box), as bait (Arabidopsis thaliana) (UniProt Q058P4)
T2 sequence: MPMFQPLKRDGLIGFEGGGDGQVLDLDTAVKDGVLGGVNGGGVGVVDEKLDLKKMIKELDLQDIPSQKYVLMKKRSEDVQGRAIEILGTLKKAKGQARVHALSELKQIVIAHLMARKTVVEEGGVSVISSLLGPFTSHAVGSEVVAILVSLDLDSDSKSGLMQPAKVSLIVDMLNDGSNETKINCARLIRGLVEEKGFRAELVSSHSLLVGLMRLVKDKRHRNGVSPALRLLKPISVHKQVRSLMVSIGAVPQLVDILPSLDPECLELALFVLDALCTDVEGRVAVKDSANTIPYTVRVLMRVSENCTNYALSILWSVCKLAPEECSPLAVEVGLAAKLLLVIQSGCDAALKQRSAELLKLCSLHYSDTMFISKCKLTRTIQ

T3: BD-PUB31 (full length PUB31 as bait) (Arabidopsis thaliana) (UniProt Q9FHN9)
T3 sequence: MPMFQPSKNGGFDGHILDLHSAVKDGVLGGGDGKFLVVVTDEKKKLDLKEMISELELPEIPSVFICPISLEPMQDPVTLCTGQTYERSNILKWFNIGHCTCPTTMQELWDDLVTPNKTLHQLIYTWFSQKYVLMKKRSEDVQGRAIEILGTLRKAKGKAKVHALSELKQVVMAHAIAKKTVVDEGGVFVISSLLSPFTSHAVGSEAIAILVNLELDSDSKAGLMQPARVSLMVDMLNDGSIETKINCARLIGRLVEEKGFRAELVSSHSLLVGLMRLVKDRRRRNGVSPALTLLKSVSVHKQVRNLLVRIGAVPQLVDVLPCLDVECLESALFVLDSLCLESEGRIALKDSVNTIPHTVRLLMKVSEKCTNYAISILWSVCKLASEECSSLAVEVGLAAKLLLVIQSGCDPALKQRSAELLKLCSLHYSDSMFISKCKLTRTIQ

T4: BD-PUB30 (full length PUB30 as bait) (Arabidopsis thaliana) (UniProt Q058P4)
T4 sequence: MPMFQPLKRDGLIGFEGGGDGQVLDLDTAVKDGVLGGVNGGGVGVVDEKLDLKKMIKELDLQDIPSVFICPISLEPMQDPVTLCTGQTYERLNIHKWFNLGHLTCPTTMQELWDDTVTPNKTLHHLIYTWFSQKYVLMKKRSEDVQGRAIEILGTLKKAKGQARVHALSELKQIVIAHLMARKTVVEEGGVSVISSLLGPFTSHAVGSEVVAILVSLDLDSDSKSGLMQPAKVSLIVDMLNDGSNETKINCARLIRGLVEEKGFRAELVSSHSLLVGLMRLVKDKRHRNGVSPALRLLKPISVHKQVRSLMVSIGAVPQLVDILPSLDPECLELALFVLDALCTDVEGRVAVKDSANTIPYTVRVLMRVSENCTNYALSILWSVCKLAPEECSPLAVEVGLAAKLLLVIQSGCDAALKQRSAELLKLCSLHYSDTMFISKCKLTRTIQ


How the values were obtained:
Assay in all cases: two-hybrid; yeast strain AH109; bait on the DNA-binding domain (pGBKT7), prey on the activation domain (pGADT7); growth on SD (-Trp, -Leu, -His) with 1 mM 3-AT, tenfold serial dilutions
[1] = target: T1, PUB31 (1-61 + 128-444), PUB31 (ΔU-box), as bait (Arabidopsis thaliana)
[2] = target: T2, PUB30 (1-65 + 132-448), PUB30 (ΔU-box), as bait (Arabidopsis thaliana)
[3] = target: T3, BD-PUB31 (full length PUB31 as bait) (Arabidopsis thaliana)
[4] = target: T4, BD-PUB30 (full length PUB30 as bait) (Arabidopsis thaliana)
[5] = target: BD-ER_CD (cytosolic domain of ERECTA fused to the DNA-binding domain) (Arabidopsis thaliana)
[6] = target: BD-BAK1_CD (cytosolic domain of BAK1 fused with DNA-binding domain) (Arabidopsis thaliana)

Molecule	binding [5]	binding [6]	further results
BAK1 (BAK1_CD) in the domain analysis in yeast (Extended Data Fig. 4c,d) (Arabidopsis thaliana) (domain or fragment)			binding [1]: binds; binding [2]: binds
TPR domain of BSK1 as prey (Arabidopsis thaliana) (domain or fragment)			binding [3]: no binding; binding [4]: no binding
AD-PUB30 (full-length PUB30 fused to the activation domain) (enzyme, UniProt Q058P4 1-448) MPMFQPLKRDGLIGFEGGGDGQVLDLDTAVKDGVLGGVNGGGVGVVDEKLDLKKMIKELDLQDIPSVFICPISLEPMQDPVTLCTGQTYERLNIHKWFNLGHLTCPTTMQELWDDTVTPNKTLHHLIYTWFSQKYVLMKKRSEDVQGRAIEILGTLKKAKGQARVHALSELKQIVIAHLMARKTVVEEGGVSVISSLLGPFTSHAVGSEVVAILVSLDLDSDSKSGLMQPAKVSLIVDMLNDGSNETKINCARLIRGLVEEKGFRAELVSSHSLLVGLMRLVKDKRHRNGVSPALRLLKPISVHKQVRSLMVSIGAVPQLVDILPSLDPECLELALFVLDALCTDVEGRVAVKDSANTIPYTVRVLMRVSENCTNYALSILWSVCKLAPEECSPLAVEVGLAAKLLLVIQSGCDAALKQRSAELLKLCSLHYSDTMFISKCKLTRTIQ	binds	binds	
AD-PUB31 (full-length PUB31 fused to the activation domain) (enzyme, UniProt Q9FHN9 1-444) MPMFQPSKNGGFDGHILDLHSAVKDGVLGGGDGKFLVVVTDEKKKLDLKEMISELELPEIPSVFICPISLEPMQDPVTLCTGQTYERSNILKWFNIGHCTCPTTMQELWDDLVTPNKTLHQLIYTWFSQKYVLMKKRSEDVQGRAIEILGTLRKAKGKAKVHALSELKQVVMAHAIAKKTVVDEGGVFVISSLLSPFTSHAVGSEAIAILVNLELDSDSKAGLMQPARVSLMVDMLNDGSIETKINCARLIGRLVEEKGFRAELVSSHSLLVGLMRLVKDRRRRNGVSPALTLLKSVSVHKQVRNLLVRIGAVPQLVDVLPCLDVECLESALFVLDSLCLESEGRIALKDSVNTIPHTVRLLMKVSEKCTNYAISILWSVCKLASEECSSLAVEVGLAAKLLLVIQSGCDPALKQRSAELLKLCSLHYSDSMFISKCKLTRTIQ	binds	binds	
